# Experimental data published in the supplement of paper PMC10735217.
# Values joined by “and” are separate entries in the source; they are usually repeats but may differ in a detail not shown here. Equal entries are not always repeated. Structures can show the parent of a compound that is named as a salt. The list shows a part of the results. This data set is noisy: repeats of one test often differ as much as different tests do.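 Human kidney-derived cells stably carry a construct in which eight TEAD-binding elements drive luciferase, measured by luminescence in a drug-repurposing library screen. A hit is any compound whose signal exceeds the plate mean by more than five robust Z scores.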
# Tested on: HEK293A TEAD-LUC reporter
# Experiment: TEAD-luciferase reporter activity (YAP activation), robust Z score vs plate; higher = stronger YAP/TEAD activation
# Settings: 24 h
SMILES,TEAD-luciferase reporter activity (compound concentration: 200 nM),TEAD-luciferase reporter activity (compound concentration: 2 uM),TEAD-luciferase reporter activity (compound concentration: 10 uM)
O=c1[nH]c2ccc(C(F)(F)F)cc2c(-c2cc(Cl)ccc2O)c1CCO,inactive: 3.09,inactive: -0.668,inactive: -0.102
COCC1CN(c2ccc(OCc3cccc(C(N)=O)c3)cc2)C(=O)O1 (configuration not stated),inactive: -1.16,inactive: 2.6,inactive: 1.48
COc1ccc(CCNC(=O)CNc2cccc(C(N)=O)c2)cc1OC,inactive: -1.43,inactive: -0.561,inactive: -0.214
CC(=O)Oc1ccccc1C(=O)Oc1c(C)occc1=O [aspalatone],inactive: -0.268,inactive: -1.96,inactive: 0.432
CC/C(=C(\c1ccc(O)cc1)c1ccc(/C=C/C(=O)O)cc1)c1ccccc1,inactive: -2.84,inactive: -1.53,inactive: -2.73
COCCN1CCC(N(Cc2ccc(-c3ccc(C(F)(F)F)cc3)cc2)C(=O)Cn2c(CCc3cccc(F)c3F)nc(=O)c3cccnc32)CC1,inactive: -0.452,inactive: 0.328,inactive: 0.344
CCC(=O)O[C@]1(C(=O)COC(C)=O)CC[C@H]2[C@@H]3C[C@H](C)C4=CC(=O)C=C[C@]4(C)[C@H]3[C@@H](O)C[C@@]21C [Methylprednisolone aceponate],inactive: -0.42,inactive: 2.98,inactive: 0.843
CC12CCC(=O)C=C1CC[C@@H]1[C@@H]2[C@@H](O)CC2(C)[C@H]1CC[C@]2(O)C(=O)COC(=O)CCC1CCCC1 (some centres not stated),inactive: 1.34,inactive: -0.655,inactive: 0.561
CCC(=O)N1Cc2ccccc2CC2(CCCCN2Cc2ccncc2)C1 (configuration not stated),inactive: -2.81,–,inactive: -0.74
C[C@@H]1CS/C(=N\NC(=O)C(=O)[C@H](NC(=O)C2CCCCCC2)C2CCOCC2)N1C,inactive: 4.12,inactive: 1.06,inactive: 1.03
OC[C@H]1O[C@@H](O[C@@H]2[C@H](O)[C@@H](O)[C@H](O[C@H]3[C@H](O)[C@@H](O)C(O)O[C@@H]3CO)O[C@@H]2CO)[C@H](O)[C@@H](O)[C@H]1O (some centres not stated) [4'-Galactosyllactose],inactive: -0.394,inactive: 0.86,inactive: 0.0612
CC(=O)Nc1ccc(OCc2cccc(F)c2)cc1,inactive: 0.58,inactive: 1.83,active: 5.3
N[C@@]1(C(=O)O)CS(=O)(=O)[C@H]2[C@H](C(=O)O)[C@H]21,inactive: -1.53,inactive: -0.689 and inactive: -1.19,inactive: 1.41
CC(C)(Cc1ccc(F)cc1)NC(=O)[C@H](CCC(=O)O)NC(=O)c1ccc(-c2ccccc2)cc1,inactive: 0.134,inactive: 0.00714,inactive: 2.78
CC1(C)CCC(C)(C)c2cc(NC(=O)c3ccc(C(=O)O)cc3)ccc21,inactive: -0.034,inactive: -0.575,inactive: 3.05
COc1ccc(-n2nc(O)c3[nH]c4cc(Cl)ccc4c(=O)c3c2=O)c(C)c1,inactive: -0.614,inactive: -0.409,inactive: 0.653
COc1cccc(N2CCN(CC(=O)NC3c4c(O)c(C)cc(C)c4CC3(C)C)CC2)c1 (configuration not stated),inactive: -1.06,inactive: -1.67,inactive: -0.561
Cc1ccc(-c2cccc(CN3CCCC3C(=O)NCc3ccccc3Cl)c2)cc1Cl (configuration not stated),inactive: 4.43,–,inactive: 0.82
CC(O)C1Sc2ccccc2N(CCCN(C)C)C1c1ccccc1 (configuration not stated),inactive: -0.696,inactive: -1.08,inactive: 1.29
Cn1cc(-c2cnc3ccc4ccc(CS(=O)(=O)NCc5ccccn5)cc4c(=O)c3c2)cn1,inactive: 1.31,inactive: -2.36,inactive: 0.639
CC(=O)N1CCC(C(=O)N(CCCN2CCC(Cc3ccc(C(N)=O)cc3)CC2)c2ccc(C)c(Cl)c2)CC1,inactive: 0.192,inactive: -0.951,inactive: 1.96
CC12CC[C@](C)(C(=O)O)C[C@@H]1C1=CC(=O)[C@@H]3C4(C)CC[C@H](OC(=O)[C@H]5CCCC[C@H]5C(=O)O)C(C)(C)C4CCC3(C)[C@]1(C)CC2 (some centres not stated) [Cicloxolone],inactive: 1.3,inactive: -0.744,inactive: 0.136
Cn1nnnc1SCC1=C(C(=O)O)N2C(=O)[C@@H](NC(=O)CSC(F)(F)F)[C@H]2SC1 [Cefazaflur],inactive: 1.18,inactive: 2.16,inactive: -0.979
NC(=O)c1ccn(-c2cnc(NC[C@]3(c4ncccc4F)C[C@H](F)C3)nc2)c1,inactive: 0.888,inactive: -0.0643,inactive: -0.968
C=CCNC1=C2C[C@@H](C)C[C@H](OC)[C@H](O)[C@@H](C)/C=C(\C)[C@H](OC(N)=O)[C@@H](OC)/C=C\C=C(/C)C(=O)NC(=CC1=O)C2=O [17-AAG (Tanespimycin)],inactive: 3.02,–,inactive: 0.106
C=CCNC1=C2C[C@@H](C)C[C@H](OC)[C@H](O)[C@@H](C)/C=C(\C)[C@H](OC(N)=O)[C@@H](OC)/C=C\C=C(/C)C(=O)NC(=CC1=O)C2=O [Tanespimycin],–,inactive: -1.96,–
CCN1CCN(C(=O)N[C@@H](C(=O)N[C@@H]2C(=O)N3[C@@H]2SC(C)(C)[C@@H]3C(=O)[O-])c2ccccc2)C(=O)C1=O [Piperacillin sodium],–,inactive: 2.02,–

# Full records as entered above.
# CC12CC[C@](C)(C(=O)O)C[C@@H]1C1=CC(=O)[C@@H]3C4(C)CC[C@H](OC(=O)[C@H]5CCCC[C@H]5C(=O)O)C(C)(C)C4CCC3(C)[C@]1(C)CC2 (some centres not stated) [Cicloxolone] is listed with TEAD-luciferase reporter activity (compound concentration: 200 nM): inactive: 1.3; TEAD-luciferase reporter activity (compound concentration: 2 uM): inactive: -0.744; TEAD-luciferase reporter activity (compound concentration: 10 uM): inactive: 0.136
# CCC(=O)N1Cc2ccccc2CC2(CCCCN2Cc2ccncc2)C1 (configuration not stated) is listed with TEAD-luciferase reporter activity (compound concentration: 200 nM): inactive: -2.81; TEAD-luciferase reporter activity (compound concentration: 10 uM): inactive: -0.74
# CC1(C)CCC(C)(C)c2cc(NC(=O)c3ccc(C(=O)O)cc3)ccc21 is listed with TEAD-luciferase reporter activity (compound concentration: 200 nM): inactive: -0.034; TEAD-luciferase reporter activity (compound concentration: 2 uM): inactive: -0.575; TEAD-luciferase reporter activity (compound concentration: 10 uM): inactive: 3.05

# The list continues:

SMILES,TEAD-luciferase reporter activity (compound concentration: 200 nM),TEAD-luciferase reporter activity (compound concentration: 2 uM),TEAD-luciferase reporter activity (compound concentration: 10 uM)
CCN1CCN(C(=O)N[C@@H](C(=O)N[C@@H]2C(=O)N3[C@@H]2SC(C)(C)[C@@H]3C(=O)[O-])c2ccccc2)C(=O)C1=O,inactive: -1.12,–,inactive: 0.925
C=CCOc1ccccc1OCC(O)CNC1CCC(N2CCNC2=O)CC1 (configuration not stated),inactive: 0.401,inactive: -0.668,inactive: 1.57
NC(=O)N1c2ccccc2C=Cc2ccccc21 [Carbamazepine298-46-4],inactive: -0.967,–,inactive: 1.14
"NC(=O)N1c2ccccc2C=Cc2ccccc21 [carbamazepine, Elan PharmaZome]",–,inactive: -0.572,–
Cn1cc(NC(=O)c2cc(NC(=O)c3ccc(/C=C/c4cnc5ccccc5c4)cc3)cn2C)cc1C(=O)NCCN1CCOCC1,inactive: 2.4,inactive: 2.6,active: 14.7
CNC(=O)[C@@H](CCC(=O)OC)NC(=O)[C@@H](CC(C)C)C(CSc1ccc(O)cc1)C(=O)NO (some centres not stated),inactive: -0.428,inactive: -0.708,inactive: 0.385
CCn1ccc(NS(=O)(=O)c2ccc(N)cc2)nc1=O,inactive: 0.729,inactive: 0.694,inactive: 1.43
Cc1ccc(OC[C@H](O)[C@H](C)NC(C)C)c2c1CCC2,inactive: 0.451,inactive: 0.573,inactive: -0.251
CC(NCCC(c1ccccc1)c1ccccc1)c1ccccc1 (configuration not stated) [Fendiline (hydrochloride)],–,inactive: -0.829,–
CC(NCCC(c1ccccc1)c1ccccc1)c1ccccc1 (configuration not stated) [Fendiline hydrochloride],inactive: 0.518,–,inactive: 2.77
O=C(O)COCCN1CCN(C(c2ccc(F)cc2)c2ccc(F)cc2)CC1 [Efletirizine],inactive: 1.98,inactive: -0.709,active: 6.2
CC(=O)O[C@@H]1[C@H](OC(C)=O)[C@@H](CO)O[C@H]1n1c(=O)sc2cnc(N)nc21,inactive: -1.62,inactive: -1.37,inactive: 0.698
NCCNC(Cc1c[nH]cn1)C(=O)O (configuration not stated),inactive: 3.54,inactive: 0.245,inactive: -0.501
CCOc1ccc(NS(=O)(=O)c2ccc(N)cc2)nn1 [Sulfaethoxypyridazine],inactive: 0.334,inactive: -1.19,inactive: 0.319
O=c1cc2c(nn1-c1ccc(Cl)cc1)-c1ccccc1S(=O)CC2 (configuration not stated),inactive: -1.43,inactive: 0.463,active: 5.53
NS(=O)(=O)Oc1ccc2c3c(c(=O)oc2c1)CCCCC3 [Irosustat],–,inactive: 3.68,–
NS(=O)(=O)Oc1ccc2c3c(c(=O)oc2c1)CCCCC3,inactive: -0.234,–,inactive: -0.0894
Oc1nc(O)c2cn[nH]c2n1 [Oxipurinol],inactive: 0.825,inactive: -1.05,inactive: -1.12
Cc1ccc(NC(=O)c2cc(C(F)(F)F)cc(C(F)(F)F)c2)cc1Nc1nccc(-c2cccnc2)n1,inactive: -0.616,inactive: 0.298,inactive: -1.22
O=C(O)CCC/C=C(\c1ccc(CCNS(=O)(=O)c2ccc(Cl)cc2)cc1)c1cccnc1,inactive: -1.1,inactive: -1.44,inactive: 3.5
CS(=O)(=O)c1ccc(-c2cc(Cl)nn2-c2ccccc2)cc1,inactive: 0.0371,inactive: 1.26,inactive: 0.833
c1ccc2c(c1)N=C(N1CCNCC1)c1ccccc1S2,inactive: -2.52,inactive: -0.754,inactive: 2.93
CCC(C/C=C/c1ccccc1)(c1ccccc1)N(C)CC1CC1 (configuration not stated) [Igmesine hydrochloride],inactive: -0.438,inactive: -0.719,inactive: 3.99
CCOC(=O)n1ccn(C)c1=S [Carbimazole],–,inactive: -1.15,–
CCOC(=O)n1ccn(C)c1=S,inactive: -0.772,–,inactive: -0.000129
Cc1c(NC(C)C)c(=O)n(-c2ccccc2)n1C,inactive: -2.77,inactive: 1.16,inactive: -0.986
CCOCn1cc(F)c(=O)n(C(=O)c2cccc(C(=O)Oc3nc(OC(=O)c4ccccc4)ccc3C#N)c2)c1=O,inactive: -0.538,inactive: -0.19,inactive: -0.695
